Assay results published in article doi:10.1101/2025.05.13.653593.

By UniProt entry, the sequences of proteins in these tests, tags left out. Where a name states a change or a piece, a line headed by the entry shows the natural chain unless it says otherwise.
UniProt P9WNQ9, whole entry, stated change not applied: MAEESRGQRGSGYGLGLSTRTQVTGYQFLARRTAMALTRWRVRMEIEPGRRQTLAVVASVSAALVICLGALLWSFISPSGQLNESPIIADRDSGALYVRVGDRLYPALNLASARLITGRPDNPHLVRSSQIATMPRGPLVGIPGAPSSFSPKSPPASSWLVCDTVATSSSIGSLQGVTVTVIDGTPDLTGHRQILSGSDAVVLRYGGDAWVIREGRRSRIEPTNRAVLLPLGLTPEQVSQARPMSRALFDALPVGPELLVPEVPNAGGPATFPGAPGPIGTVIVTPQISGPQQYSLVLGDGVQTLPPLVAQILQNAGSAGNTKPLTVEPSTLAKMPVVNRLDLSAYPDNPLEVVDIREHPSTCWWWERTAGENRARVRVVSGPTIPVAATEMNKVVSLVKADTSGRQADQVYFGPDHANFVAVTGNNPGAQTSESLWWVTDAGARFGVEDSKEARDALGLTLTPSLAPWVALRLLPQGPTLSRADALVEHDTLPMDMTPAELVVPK

Biological target: GFP-EccB5 (Mycobacterium tuberculosis) (UniProt P9WNQ9)
Test: affinity purification with mass spectrometry

For “GSDMD found in the anti-GFP immunoprecipitate of HEK293T cells (from UniProt P57764 1-484)”, the binding was “binds”.

No constants are given. Whether binding was seen depends on the method and setting. In cells and extracts the contact can be indirect. These calls come from enrichment with a bait or labelling near it, and not all partners need be listed.
